Assay results taken from publication PMC9654362.

Target: 3xFlag-FTH1 (ferritin heavy chain, H Ferritin subunit) (human) (UniProt P02794)
Assay: affinity purification with mass spectrometry; 3xFlag-FTH1 immunoprecipitated from HEK-293T lysate on anti-FLAG M2 magnetic beads after pre-clearing on Protein G Dynabeads; washes with 150 and 300 mM NaCl in lysis buffer; elution with 3xFLAG peptide; SDS-PAGE, in situ trypsin digestion, nanoLC-MS/MS; empty vector as control

binding	Substance
binds	HSPB1 protein (from UniProt P04792 1-205)
binds	Vimentin (from UniProt P08670 1-466)

No constants are given. Whether binding was seen depends on the method and setting. In cells and extracts the contact can be indirect. A yes stands for co-enrichment or nearness to the bait. Other partners may have been found.
